Test results from the supplement of paper PMC10849652.
The list shows a part of the results.

Amino acid sequences for entries named in this document (tags omitted). A change or cut given only in a name is not applied to a line headed by its entry.
UniProt O75340: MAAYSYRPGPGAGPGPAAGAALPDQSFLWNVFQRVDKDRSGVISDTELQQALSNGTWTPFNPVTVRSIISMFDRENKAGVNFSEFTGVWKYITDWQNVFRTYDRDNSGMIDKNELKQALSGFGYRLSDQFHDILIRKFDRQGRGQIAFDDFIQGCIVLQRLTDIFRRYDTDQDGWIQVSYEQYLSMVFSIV
UniProt Q8N165: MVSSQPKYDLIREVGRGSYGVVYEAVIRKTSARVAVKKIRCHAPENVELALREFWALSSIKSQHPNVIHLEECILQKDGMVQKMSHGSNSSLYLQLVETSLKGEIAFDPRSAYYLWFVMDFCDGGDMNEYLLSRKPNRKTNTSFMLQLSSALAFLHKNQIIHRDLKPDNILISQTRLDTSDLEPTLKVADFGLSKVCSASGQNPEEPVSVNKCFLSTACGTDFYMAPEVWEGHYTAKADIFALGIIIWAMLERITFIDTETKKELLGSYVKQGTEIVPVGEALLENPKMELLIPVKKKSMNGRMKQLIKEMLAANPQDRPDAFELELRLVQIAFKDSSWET
UniProt Q16342: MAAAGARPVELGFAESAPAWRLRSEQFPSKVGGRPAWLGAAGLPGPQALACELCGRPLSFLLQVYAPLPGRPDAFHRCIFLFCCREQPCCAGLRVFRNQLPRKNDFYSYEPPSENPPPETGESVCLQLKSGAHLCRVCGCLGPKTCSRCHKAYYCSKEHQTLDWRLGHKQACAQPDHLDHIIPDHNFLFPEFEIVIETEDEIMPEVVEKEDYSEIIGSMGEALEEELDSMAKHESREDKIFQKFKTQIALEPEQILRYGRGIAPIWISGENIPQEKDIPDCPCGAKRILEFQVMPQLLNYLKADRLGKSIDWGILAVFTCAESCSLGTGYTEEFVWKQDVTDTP
UniProt Q9UBV8: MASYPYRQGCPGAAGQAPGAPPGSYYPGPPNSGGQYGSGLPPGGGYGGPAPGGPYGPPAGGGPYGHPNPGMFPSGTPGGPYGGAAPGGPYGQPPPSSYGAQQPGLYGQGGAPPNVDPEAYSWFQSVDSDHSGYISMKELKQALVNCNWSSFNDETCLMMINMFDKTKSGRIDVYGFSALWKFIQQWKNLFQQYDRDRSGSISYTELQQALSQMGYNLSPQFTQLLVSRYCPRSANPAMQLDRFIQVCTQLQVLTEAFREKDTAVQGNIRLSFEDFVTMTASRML
UniProt Q96MG8: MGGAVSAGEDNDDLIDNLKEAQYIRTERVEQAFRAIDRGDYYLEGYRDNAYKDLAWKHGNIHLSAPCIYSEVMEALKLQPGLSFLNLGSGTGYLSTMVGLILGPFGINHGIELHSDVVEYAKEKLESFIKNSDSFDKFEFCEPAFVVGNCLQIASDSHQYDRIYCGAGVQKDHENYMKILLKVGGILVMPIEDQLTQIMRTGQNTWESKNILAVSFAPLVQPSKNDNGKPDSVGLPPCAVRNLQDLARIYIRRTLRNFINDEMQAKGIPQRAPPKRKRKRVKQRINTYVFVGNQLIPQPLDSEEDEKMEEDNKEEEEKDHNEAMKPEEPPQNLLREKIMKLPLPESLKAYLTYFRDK
UniProt Q15154: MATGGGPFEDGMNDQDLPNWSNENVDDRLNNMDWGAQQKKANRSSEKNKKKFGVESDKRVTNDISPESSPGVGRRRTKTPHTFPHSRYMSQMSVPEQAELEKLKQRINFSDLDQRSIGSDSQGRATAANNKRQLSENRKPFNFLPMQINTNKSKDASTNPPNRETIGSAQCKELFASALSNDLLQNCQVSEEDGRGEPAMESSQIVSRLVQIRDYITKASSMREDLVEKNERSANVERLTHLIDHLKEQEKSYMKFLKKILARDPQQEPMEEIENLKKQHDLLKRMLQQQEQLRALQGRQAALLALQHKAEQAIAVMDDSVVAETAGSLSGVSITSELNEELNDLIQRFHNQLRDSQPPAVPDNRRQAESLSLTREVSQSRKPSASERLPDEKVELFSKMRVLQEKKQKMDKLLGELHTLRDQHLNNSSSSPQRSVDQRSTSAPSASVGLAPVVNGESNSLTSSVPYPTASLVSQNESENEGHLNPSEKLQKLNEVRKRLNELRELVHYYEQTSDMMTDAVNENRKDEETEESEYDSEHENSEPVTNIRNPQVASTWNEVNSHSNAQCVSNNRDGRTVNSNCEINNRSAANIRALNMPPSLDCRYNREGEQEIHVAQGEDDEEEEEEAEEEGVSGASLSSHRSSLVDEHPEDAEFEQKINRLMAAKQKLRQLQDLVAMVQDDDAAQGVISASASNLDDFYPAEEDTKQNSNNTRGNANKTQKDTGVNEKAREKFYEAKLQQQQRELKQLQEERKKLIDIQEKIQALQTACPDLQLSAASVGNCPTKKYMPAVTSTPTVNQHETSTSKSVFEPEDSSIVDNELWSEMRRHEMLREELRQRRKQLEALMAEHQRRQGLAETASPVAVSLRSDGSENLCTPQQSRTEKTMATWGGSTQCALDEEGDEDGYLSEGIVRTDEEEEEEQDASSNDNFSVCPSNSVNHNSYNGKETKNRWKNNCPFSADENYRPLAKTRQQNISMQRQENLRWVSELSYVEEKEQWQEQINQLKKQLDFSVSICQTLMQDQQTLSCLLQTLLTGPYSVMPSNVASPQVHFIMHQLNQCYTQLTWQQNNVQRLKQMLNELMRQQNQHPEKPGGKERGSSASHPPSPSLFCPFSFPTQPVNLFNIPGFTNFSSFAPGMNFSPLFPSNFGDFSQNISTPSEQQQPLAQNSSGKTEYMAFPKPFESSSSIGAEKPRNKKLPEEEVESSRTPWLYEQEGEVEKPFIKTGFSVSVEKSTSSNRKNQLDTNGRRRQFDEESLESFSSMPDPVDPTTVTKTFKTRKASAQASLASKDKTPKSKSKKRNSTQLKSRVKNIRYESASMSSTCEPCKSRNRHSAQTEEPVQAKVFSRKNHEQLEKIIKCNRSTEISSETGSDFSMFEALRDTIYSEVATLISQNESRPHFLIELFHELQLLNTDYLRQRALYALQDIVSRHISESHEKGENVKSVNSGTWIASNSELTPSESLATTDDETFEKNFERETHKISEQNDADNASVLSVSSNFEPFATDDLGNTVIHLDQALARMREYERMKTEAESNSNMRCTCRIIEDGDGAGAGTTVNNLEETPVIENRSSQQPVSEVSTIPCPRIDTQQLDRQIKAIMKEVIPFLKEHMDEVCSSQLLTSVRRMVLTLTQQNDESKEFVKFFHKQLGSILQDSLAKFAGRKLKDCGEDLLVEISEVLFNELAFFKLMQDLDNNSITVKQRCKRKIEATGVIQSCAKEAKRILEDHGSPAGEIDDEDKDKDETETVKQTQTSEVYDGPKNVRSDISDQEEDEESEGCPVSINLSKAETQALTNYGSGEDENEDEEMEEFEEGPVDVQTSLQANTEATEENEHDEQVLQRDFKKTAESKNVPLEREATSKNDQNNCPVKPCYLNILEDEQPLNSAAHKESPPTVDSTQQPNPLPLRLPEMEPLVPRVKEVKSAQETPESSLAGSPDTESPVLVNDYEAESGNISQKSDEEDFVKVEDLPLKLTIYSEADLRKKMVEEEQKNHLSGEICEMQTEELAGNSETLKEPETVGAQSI
UniProt P27815: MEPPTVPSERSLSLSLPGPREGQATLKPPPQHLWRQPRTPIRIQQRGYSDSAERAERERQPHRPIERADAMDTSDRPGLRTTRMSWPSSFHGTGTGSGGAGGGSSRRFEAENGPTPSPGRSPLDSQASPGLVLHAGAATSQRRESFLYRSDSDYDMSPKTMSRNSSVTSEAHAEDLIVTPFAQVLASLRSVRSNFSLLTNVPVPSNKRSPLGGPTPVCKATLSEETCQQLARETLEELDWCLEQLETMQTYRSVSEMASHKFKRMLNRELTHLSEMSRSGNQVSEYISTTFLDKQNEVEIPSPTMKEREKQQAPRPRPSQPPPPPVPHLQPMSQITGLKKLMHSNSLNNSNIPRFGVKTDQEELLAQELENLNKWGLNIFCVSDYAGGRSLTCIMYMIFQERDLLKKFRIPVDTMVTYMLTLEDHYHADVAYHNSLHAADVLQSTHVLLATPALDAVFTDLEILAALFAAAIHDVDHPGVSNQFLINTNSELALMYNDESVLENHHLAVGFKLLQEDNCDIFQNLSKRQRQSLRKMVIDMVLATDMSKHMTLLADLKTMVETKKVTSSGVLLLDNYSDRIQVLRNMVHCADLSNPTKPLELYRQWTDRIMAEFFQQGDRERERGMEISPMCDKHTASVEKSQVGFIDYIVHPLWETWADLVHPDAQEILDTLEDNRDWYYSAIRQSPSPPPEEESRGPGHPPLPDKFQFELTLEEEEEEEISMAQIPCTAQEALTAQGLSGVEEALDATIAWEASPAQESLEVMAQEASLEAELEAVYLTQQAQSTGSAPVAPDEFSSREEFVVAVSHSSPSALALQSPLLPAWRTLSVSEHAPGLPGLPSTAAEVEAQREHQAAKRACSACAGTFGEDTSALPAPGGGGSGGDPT
UniProt Q9P0J1: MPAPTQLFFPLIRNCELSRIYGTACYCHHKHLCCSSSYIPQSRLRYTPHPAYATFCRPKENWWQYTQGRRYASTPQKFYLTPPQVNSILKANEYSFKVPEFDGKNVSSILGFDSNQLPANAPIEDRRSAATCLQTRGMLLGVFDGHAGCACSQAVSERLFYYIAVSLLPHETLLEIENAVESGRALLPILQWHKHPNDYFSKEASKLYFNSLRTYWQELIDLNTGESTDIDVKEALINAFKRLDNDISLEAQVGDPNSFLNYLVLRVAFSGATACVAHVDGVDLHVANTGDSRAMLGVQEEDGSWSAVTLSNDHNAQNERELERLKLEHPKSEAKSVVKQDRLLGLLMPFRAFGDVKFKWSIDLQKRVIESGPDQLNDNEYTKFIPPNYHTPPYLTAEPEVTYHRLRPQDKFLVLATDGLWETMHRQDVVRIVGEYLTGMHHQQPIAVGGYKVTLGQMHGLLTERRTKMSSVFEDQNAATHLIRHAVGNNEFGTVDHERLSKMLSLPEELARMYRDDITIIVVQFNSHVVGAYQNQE
UniProt Q8TEW0: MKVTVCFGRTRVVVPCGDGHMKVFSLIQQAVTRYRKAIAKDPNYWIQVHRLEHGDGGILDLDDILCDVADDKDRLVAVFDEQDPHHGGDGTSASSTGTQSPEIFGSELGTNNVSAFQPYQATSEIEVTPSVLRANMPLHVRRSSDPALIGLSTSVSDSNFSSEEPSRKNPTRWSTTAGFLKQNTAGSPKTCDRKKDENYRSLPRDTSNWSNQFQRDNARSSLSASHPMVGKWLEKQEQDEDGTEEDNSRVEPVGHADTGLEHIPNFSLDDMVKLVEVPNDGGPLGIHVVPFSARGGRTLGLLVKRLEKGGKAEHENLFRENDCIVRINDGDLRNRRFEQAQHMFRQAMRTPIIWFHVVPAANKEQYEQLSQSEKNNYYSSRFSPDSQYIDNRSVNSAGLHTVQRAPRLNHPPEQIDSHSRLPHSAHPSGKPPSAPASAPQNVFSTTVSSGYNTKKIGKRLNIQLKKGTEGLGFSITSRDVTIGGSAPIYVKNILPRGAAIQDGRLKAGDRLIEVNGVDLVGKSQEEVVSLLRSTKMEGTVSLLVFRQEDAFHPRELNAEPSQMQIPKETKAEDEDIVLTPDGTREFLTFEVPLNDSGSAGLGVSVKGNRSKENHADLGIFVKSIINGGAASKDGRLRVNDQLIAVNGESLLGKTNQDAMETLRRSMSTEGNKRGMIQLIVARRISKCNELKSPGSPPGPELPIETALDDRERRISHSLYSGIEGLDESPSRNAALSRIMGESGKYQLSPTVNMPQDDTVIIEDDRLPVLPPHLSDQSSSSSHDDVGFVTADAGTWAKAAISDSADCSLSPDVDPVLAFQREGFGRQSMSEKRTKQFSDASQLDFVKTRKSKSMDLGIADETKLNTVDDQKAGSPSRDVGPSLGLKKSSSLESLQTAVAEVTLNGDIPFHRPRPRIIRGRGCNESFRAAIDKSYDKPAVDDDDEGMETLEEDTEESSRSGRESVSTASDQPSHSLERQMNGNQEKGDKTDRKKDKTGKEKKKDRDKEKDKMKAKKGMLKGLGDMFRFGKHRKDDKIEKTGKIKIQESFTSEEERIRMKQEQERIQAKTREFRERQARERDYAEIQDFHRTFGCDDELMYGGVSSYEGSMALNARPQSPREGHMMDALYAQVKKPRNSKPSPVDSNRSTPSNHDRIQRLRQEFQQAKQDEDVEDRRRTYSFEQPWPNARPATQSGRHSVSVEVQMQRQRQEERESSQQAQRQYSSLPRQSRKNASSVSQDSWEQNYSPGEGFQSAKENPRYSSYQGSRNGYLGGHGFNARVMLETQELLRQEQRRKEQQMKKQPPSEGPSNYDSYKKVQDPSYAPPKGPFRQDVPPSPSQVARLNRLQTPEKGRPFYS
UniProt Q86SE9: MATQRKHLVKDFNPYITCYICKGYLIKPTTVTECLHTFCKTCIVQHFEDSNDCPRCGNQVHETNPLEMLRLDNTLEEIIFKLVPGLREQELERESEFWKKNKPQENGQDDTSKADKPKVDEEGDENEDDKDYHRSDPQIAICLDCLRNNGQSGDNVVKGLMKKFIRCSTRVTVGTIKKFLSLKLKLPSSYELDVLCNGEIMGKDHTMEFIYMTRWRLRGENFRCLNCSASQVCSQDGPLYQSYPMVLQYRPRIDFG

Key:
Test in all cases: log2 fold change, soluble protein after heating vs DMSO (PISA); higher = thermal stabilisation; K562 cells, 10 uM, 30 min; active = over 0.2 and 3.5 SD of the protein, either way, in both replicates (recomputed)
saracatinib = compound: CN1CCN(CCOc2cc(OC3CCOCC3)c3c(Nc4c(Cl)ccc5c4OCO5)ncnc3c2)CC1 [saracatinib]
Outline: (§1)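 K562 cells at 2×10^6 cells/mL were given 10 μM compound for 30 min. Aliquots then went through 3 min of heating across 48°C-58°C, were pooled, and were extracted in PBS with 0.5% NP-40 at 4°C, and the supernatant after 21,000xg for 90 min was quantified by TMTpro 16plex LC-MS/MS with channel sums equalised. Thermal stability relative to control samples, from duplicates, is given as log2 fold change.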

sotrastaurin = compound: CN1CCN(c2nc(C3=C(c4c[nH]c5ccccc45)C(=O)NC3=O)c3ccccc3n2)CC1 [sotrastaurin]
Outline: as §1

Tubastatin A = compound: CN1CCc2c(c3ccccc3n2Cc2ccc(C(=O)NO)cc2)C1 [Tubastatin A]
Outline: as §1

[1] = compound: CNC(=O)C1=CC=CC=C1NC2=NC(=NC=C2Cl)NC3=C(C=C(C=C3)N4CCOCC4)OC
Outline: as §1

defactinib = compound: CNC(=O)c1ccc(Nc2ncc(C(F)(F)F)c(NCc3nccnc3N(C)S(C)(=O)=O)n2)cc1 [defactinib]
Outline: as §1

rucaparib = compound: CNCc1ccc(-c2[nH]c3cc(F)cc4c3c2CCNC4=O)cc1 [rucaparib]
Outline: as §1

[2] = compound: CNc1nc(-c2ccc3c(N)n[nH]c3c2)cc(N2C[C@@H](C(=O)NC3CCCCC3)CC[C@H]2C)n1
Outline: as §1

encorafenib = compound: COC(=O)N[C@@H](C)CNc1nccc(-c2cn(C(C)C)nc2-c2cc(Cl)cc(NS(C)(=O)=O)c2F)n1 [encorafenib]
Outline: as §1

[3] = compound: COC(=O)[C@H](CCSC)NC(=O)C1=C(C=C(C=C1)NC[C@H](CS)N)C2=CC=CC=C2
Outline: as §1

alvocidib = compound: CN1CC[C@H](c2c(O)cc(O)c3c(=O)cc(-c4ccccc4Cl)oc23)[C@H](O)C1 [alvocidib]
Outline: as §1

Target	log2 fold change (saracatinib)	log2 fold change (sotrastaurin)	log2 fold change (Tubastatin A)	log2 fold change [1]	log2 fold change (defactinib)	log2 fold change (rucaparib)	log2 fold change [2]	log2 fold change (encorafenib)	log2 fold change [3]	log2 fold change (alvocidib)
PCTP (UniProt Q9UKL6)	inactive: 0.083	inactive: -0.016	inactive: -0.002	inactive: 0	inactive: -0.037	inactive: -0.056	inactive: 0.039	inactive: -0.032	inactive: 0.094	
PEX1 (UniProt O43933)	inactive: 0.018	inactive: 0.008	inactive: 0.018	inactive: 0.002	inactive: -0.046	inactive: 0.032	inactive: -0.001	inactive: 0.005	inactive: -0.08	inactive: -0.033
PEX12 (UniProt O00623)	inactive: 0	inactive: -0.045	inactive: -0.006	inactive: 0.008	inactive: -0.017		inactive: 0		inactive: 0.141	inactive: 0.017
PDIA6 isoform 2 (UniProt Q15084)	inactive: 0.001	inactive: 0.005	inactive: -0.04	inactive: 0.018	inactive: 0.013	inactive: -0.025	inactive: -0.031	inactive: -0.009	inactive: 0.056	inactive: 0.043
PDCL (UniProt Q13371)	inactive: -0.069	inactive: 0.024	inactive: 0.035	inactive: 0.038	inactive: -0.062	inactive: -0.04	inactive: -0.064	inactive: -0.008	inactive: 0.074	inactive: -0.141
PDE12 (UniProt Q6L8Q7)	inactive: 0.014	inactive: 0.018	inactive: 0.01	inactive: 0.028	inactive: -0.04	inactive: -0.005	inactive: 0.023	inactive: -0.019	inactive: 0.007	
PDCD6 (UniProt O75340)	inactive: 0.038	inactive: -0.014	inactive: 0.001	inactive: 0.026	inactive: -0.017	inactive: -0.048	inactive: -0.153	inactive: 0.002	inactive: 0.004	
PCGF2 (UniProt P35227)	inactive: -0.029	inactive: 0.04	inactive: 0.039	inactive: -0.057	inactive: -0.129	inactive: 0.024	inactive: 0.122	inactive: 0.071	inactive: 0.027	
PEX14 (UniProt O75381)	inactive: 0.024	inactive: 0	inactive: -0.023	inactive: -0.019	inactive: 0.019	inactive: -0.076	inactive: -0.014	inactive: 0.022	inactive: -0.003	inactive: 0.02
PDIK1L (UniProt Q8N165)	inactive: -0.062	inactive: 0.019	inactive: 0.063	inactive: 0.192	inactive: 0.014	inactive: 0.111	inactive: -0.064	inactive: -0.022	inactive: -0.115	
PDCD6IP (UniProt Q8WUM4)	inactive: -0.11	inactive: -0.227	inactive: 0.048	inactive: 0.034	inactive: -0.141	inactive: 0.119	inactive: 0.055	inactive: 0.138	inactive: -0.048	
PDE4DIP isoform 4 (UniProt Q5VU43)	inactive: -0.028	inactive: -0.064	inactive: 0.064	inactive: -0.065	inactive: 0.021	inactive: -0.057	inactive: 0.007	inactive: -0.015	inactive: 0.035	
PDCD2 (UniProt Q16342)	inactive: 0.052	inactive: -0.18	inactive: 0.006			inactive: 0.078	inactive: 0.082	inactive: 0.067		inactive: 0.016
PEF1 (UniProt Q9UBV8)	inactive: 0	inactive: 0.053	inactive: -0.004	inactive: 0.049	inactive: -0.01	inactive: -0.019	inactive: -0.014	inactive: -0.025	inactive: -0.003	
PAGE5 (UniProt Q96GU1)	inactive: -0.014	inactive: 0.307	inactive: 0.091	inactive: -0.004	inactive: -0.014	inactive: 0.007	inactive: -0.073	inactive: -0.2	inactive: 0.4	inactive: -0.044
PCSK7 (UniProt Q16549)				inactive: -0.05						
PEMT isoform 2 (UniProt Q9UBM1)			inactive: -0.106	inactive: 0.003						
PCNX1 (UniProt Q96RV3)			inactive: -0.041		inactive: 0.027	inactive: -0.123		inactive: 0.085	inactive: -0.039	
PABPN1 (UniProt Q86U42)	inactive: 0.132						inactive: -0.071			inactive: 0.224

A portion from the list above, for reference:
Target	log2 fold change (saracatinib)	log2 fold change (sotrastaurin)	log2 fold change (Tubastatin A)	log2 fold change [1]	log2 fold change (defactinib)	log2 fold change (rucaparib)	log2 fold change [2]	log2 fold change (encorafenib)	log2 fold change [3]	log2 fold change (alvocidib)
PDCD6IP (UniProt Q8WUM4)	inactive: -0.11	inactive: -0.227	inactive: 0.048	inactive: 0.034	inactive: -0.141	inactive: 0.119	inactive: 0.055	inactive: 0.138	inactive: -0.048	
PDE4DIP isoform 4 (UniProt Q5VU43)	inactive: -0.028	inactive: -0.064	inactive: 0.064	inactive: -0.065	inactive: 0.021	inactive: -0.057	inactive: 0.007	inactive: -0.015	inactive: 0.035	

Following part.

Target	log2 fold change (saracatinib)	log2 fold change (sotrastaurin)	log2 fold change (Tubastatin A)	log2 fold change [1]	log2 fold change (defactinib)	log2 fold change (rucaparib)	log2 fold change [2]	log2 fold change (encorafenib)	log2 fold change [3]	log2 fold change (alvocidib)
PCF11 (UniProt O94913)					inactive: -0.059	active: -0.995		inactive: -0.06	inactive: 0.095	
PCMTD1 (UniProt Q96MG8)	inactive: -0.269						inactive: 0.272			
PCBP2 (UniProt F8VZX2)	inactive: 0.009			inactive: 0.06			inactive: 0.084			
PCM1 isoform 2 (UniProt Q15154)	inactive: -0.185	inactive: 0.034					inactive: -0.031			
PAGE4 (UniProt O60829)		inactive: -0.148	inactive: -0.023	inactive: -0.018	inactive: 0.004	inactive: 0.116		inactive: -0.024	inactive: -0.069	inactive: 0.185
PDIA4, A0A499FI48	inactive: -0.047		inactive: -0.064		inactive: -0.014	inactive: -0.162	inactive: -0.008	inactive: 0.056	inactive: 0.085	
PDE4A (UniProt P27815)			inactive: 0.054	inactive: 0.017	inactive: -0.145				inactive: -0.018	
PDXP (UniProt B1AHD3)					inactive: 0.075				inactive: 0.073	inactive: -0.19
PDE4DIP (UniProt E9PS60)				inactive: -0.196	inactive: 0.095	inactive: 0.172		inactive: 0.125	inactive: 0.032	
PAICS (UniProt D6RF62)	inactive: 0.001					inactive: 0.061	inactive: -0.225	inactive: -0.177		
PACS2 isoform 2 (UniProt Q86VP3)		inactive: 0.182								
PDP1 isoform 2 (UniProt Q9P0J1)		inactive: -0.077								
PAF1 (UniProt Q8N7H5)	inactive: 0.234						inactive: -0.076			inactive: -0.249
PCNX3 (UniProt Q9H6A9)				inactive: 0.075						
PALM (UniProt O75781)				inactive: -0.088	inactive: -0.111				inactive: 0.067	
PARD3 (UniProt Q8TEW0)						inactive: 0.168		inactive: -0.092		
PACSIN3 (UniProt Q9UKS6)				inactive: -0.136						
PCGF5 (UniProt Q86SE9)	inactive: -0.524	inactive: -0.025				inactive: -0.045	inactive: -0.462	inactive: -0.22		
PAN2 (UniProt Q504Q3)	inactive: 0.113				inactive: 0.001	active: -0.656	inactive: -0.048	inactive: 0.073	inactive: -0.045	

Individual results from the entries so far.
Under log2 fold change (sotrastaurin), PAGE4 (UniProt O60829) shows inactive: -0.148
Under log2 fold change (saracatinib), PAN2 (UniProt Q504Q3) shows inactive: 0.113
Under log2 fold change (encorafenib), PARD3 (UniProt Q8TEW0) shows inactive: -0.092
